Most values lie at the floor of the assay. Slopes are relative: functional sequences can read slightly below zero.
These substances were tested on Saccharomyces cerevisiae PS128 hsf1 delta, HSF1(1-493) fusion (assay: growth estimate (transactivation domain function in HSF1 fusion, heat-shock survival) (a.u. (slope of normalised read count over time)); higher = stronger growth at 37°C, i.e. more transactivation activity). Settings: library: random library.
Protocol: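 Random 60-nt DNA library encoding peptides of up to 20 aa, fused to the C-terminus of yeast HSF1 residues 1-493 (C-terminal TAD deleted) and expressed from the native HSF1 promoter on a CEN plasmid in hsf1-deleted S. cerevisiae PS128. Cells were selected at 37°C on -trp 5-FOA plates for 0, 2, 4, 6 and 8 days and amplicons were sequenced. Growth estimate is the slope of a robust linear fit of total-sum-normalised read counts (normalised to the first time point) over time, using at least 2 replicates. Sequences are classed functional (TAD activity) above a threshold of -0.13, set from stop-codon control sequences.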

Substance	growth estimate
SNVREPSFR	< -0.25
RTATQCRYALYILGQKCERH	< -0.25
WPKLVGCCLFISRDLHFRFL	< -0.25
DERRRW	< -0.25
APKAEECQVILSPIRGLKVW	< -0.25
EPPPVRDAQGRRQYT	< -0.25
TMKRCYRIL	< -0.25
TLAYRPSRPLESTDHA	< -0.25
VSYNGIAGLWRVTKHSCYRQ	< -0.25
RKT	< -0.25
TGSSKLIIPRGMEGAPTTGS	< -0.25
ALGMGGVKPGNGHINVDLAH	< -0.25
AVIVY	-0.243
VVRTQDLKSIQQILRRNHTV	-0.243
TVVQRVRGQIKNSRPATQFL	< -0.25
RDLAVQSCDAIIQWSIAPRG	< -0.25
AVTECFLTNMGCNRAV	< -0.25
REIGAAGLPRSATRHG	-0.245
VGLTEY	< -0.25
VRFLT	< -0.25
EPLIRGRGSDAIARVCPLGP	< -0.25
QIVRYAANEGELEQSAGFGA	-0.246
RPAGSPTKGRSTRAPGSICH	< -0.25
WHGNRPAQ	< -0.25
LLTPAVEFSHRNPHHWVPAT	< -0.25
YEGGGGGTRDSAPWSQVQDA	< -0.25

Substance	growth estimate
TAGSEPAGAACQKSLNLGCN	< -0.25
KLRRCGDSRWRRRLPLTRAL	< -0.25
GVGSQTGVRSNKSWRYLRGV	< -0.25
KVT	< -0.25
VGHYC	< -0.25
NRVFVIVSASLMGIHSP	< -0.25
DPGPCRSVIALTVSISLQIL	< -0.25
PRNSSSGLSMRLCVVHVNSD	< -0.25
CTRAWSKMCLIMYISMITDS	< -0.25
SSLMNKVSGPL	< -0.25
PILAA	< -0.25
AGRGLPRGF	< -0.25
VQLAQPGIVGGPA	< -0.25
THRRLAWMNHSPFTTLYKTG	< -0.25
LREYAGVWSSLGWQIMAPLL	< -0.25
PRARCHPHSLLNARFGDWDM	< -0.25
LYLSESKRTHECQWR	< -0.25
RGEDI	< -0.25
QWYDCKSIILDEYKADGPLS	< -0.25
IHLRGTTRIPNGGRSVPLLR	< -0.25
MPFSIARASTVPYYS	-0.217
QEYRPISMCVLW	< -0.25
QLKIITRALGELNKLVWVRC	< -0.25
HFIDESRII	< -0.25
WRPQSMVVDMI	< -0.25
GIVREYLLRLKR	< -0.25

Substance	growth estimate
WHRACVF	< -0.25
SAPEAAALKEEVNSTGHRTL	< -0.25
RGSQIRAR	< -0.25
GRETRSGGLSFEILPSDNWQ	< -0.25
GQPLQTGS	< -0.25
HMCVANALSWSRC	< -0.25
RRGGSEALRHDRHRGGLVSR	< -0.25
EGGLTPG	< -0.25
STLHRPLLIRYSTIPELQLA	-0.248
YTYAREFPGPAGRRRVPMCR	< -0.25
RFPVGTGWPCVRKYGELTPS	< -0.25
VHRVSRRV	< -0.25
ASIVSPLRSADHSGSGSN	< -0.25
PASSFGA	< -0.25
GLRIGRGFRGDRACSRTAIP	< -0.25
LALLWVVSVI	< -0.25
GRPDLG	< -0.25
AAVRLKHGTI	< -0.25
SKCPRATVRRQLERMLSVLG	< -0.25
VATLRSRGIGGCWKLRL	< -0.25
LCLGLCVVGGLTLRCSTGML	< -0.25
IRSCGYSLLASPVALGARFA	< -0.25
ERRLSRG	< -0.25
GDVRRSGPVVPSCTVLCRNC	< -0.25
TTCIDR	< -0.25
SEWSSDFVFSTQAPSSRLSL	< -0.25

Substance	growth estimate
GICKHHGRAETHKH	< -0.25
HHREGRSLKRELLSGAALPE	< -0.25
HSSGPSGTRSRKILTG	< -0.25
TGIVCIVLEDATVSIRRRAP	< -0.25
LLGTHDRGARRILRYRSPVE	-0.243
KHG	< -0.25
SFQSHGFLCSRHRTRTHGIR	< -0.25
CYGRICESFAPAPIIASGTS	< -0.25
LERQNEPRALI	< -0.25
VIL	< -0.25
QQLWTGYYVARLTMRRVGGV	< -0.25
SSWLCGGLLYNT	< -0.25
SCYIVMVGKIKWLSLRLTNY	< -0.25
VVSQDALHRTNPIKDAYLVR	< -0.25
TGHCGFSLLELGIYLRA	< -0.25
KFDHGPKDLWSVRWSYCAAG	-0.219
LVTRTEFPEGEKNTLSARHT	< -0.25
RTLRLALAKACIDQVLVNAG	< -0.25
RCKRT	< -0.25
LPD	< -0.25
SGTLAI	< -0.25
CGRARGVPARAGR	< -0.25
DQWLLVRAEFPRASRTETMS	< -0.25
VMALTVHGVSQGHEDGES	< -0.25
LRLGRVQLSN	< -0.25
VIEVLTGPDDRSVKASYTSP	< -0.25

Substance	growth estimate
FLPPGFPEGSQGTAAKETCY	< -0.25
ALKLGSLSWALHGQYTDLRS	-0.0257
ATLEQIRG	< -0.25
NALLPKRVSLS	< -0.25
RGLIDGARPEAAFERRVTRG	< -0.25
SHDSVFASFCQGQIRCSPTG	< -0.25
HEEGKATSTVGNAATGPLCL	< -0.25
VRQC	< -0.25
QGQL	< -0.25
VVLRSHREVHF	< -0.25
QNTPLLLFSSEGGGLYRVGS	< -0.25
LRCWRL	< -0.25
PATGEGGQLGDGRPPQGSLG	< -0.25
RKTSAR	< -0.25
SGPGCPRYFSVQSTDD	< -0.25
KRVQTVMRLQHGVSISARHS	< -0.25
GHERWPL	< -0.25
PSIFLATLMTHVRQPRESRR	-0.243
SSEVRHAT	< -0.25
SERTTSLSGDGSGIGTRVTG	< -0.25
SCIGSES	< -0.25
QDICACAKHAPE	< -0.25
HTLGTTANWSNALFVAQ	< -0.25
HEGKGDNSHDKSEYVRVTCW	< -0.25
VVMFLTLEDS	< -0.25
NFCGLTSLRYETVRHPI	< -0.25

In a second layout: results already given.
Substance | growth estimate
QNTPLLLFSSEGGGLYRVGS | < -0.25
PATGEGGQLGDGRPPQGSLG | < -0.25
KRVQTVMRLQHGVSISARHS | < -0.25
SERTTSLSGDGSGIGTRVTG | < -0.25

(further entries)

Substance	growth estimate
LDPTQWPYGTGIHGRNSIKF	< -0.25
LAWGSTTP	< -0.25
FWYVGYED	< -0.25
SGGYQ	< -0.25
DGEPRILMCQRMRPFPCRPH	< -0.25
VRNFRGL	< -0.25
GPECGRFASQLLDKYHLSSP	< -0.25
QAWAGAEQGC	< -0.25
PNRSFVLKGLLIRVTGTLVL	< -0.25
SHRGNSVDVGTCRGVRLRRY	< -0.25
VAAAFYGGFPIGTEACTGVG	< -0.25
SVAPTSPLTAPQ	< -0.25
EWPS	< -0.25
HSRVCLRSLG	< -0.25
FNIDSRNHKTSPSMYSLRVI	< -0.25
SAP	< -0.25
YGWSGCIL	< -0.25
VVPT	< -0.25
FIESYRHTWELCSVHL	-0.231
NIMLSVTNFCVRQMAAKLGD	< -0.25
YCV	< -0.25
TKNMTCHCLLILCGKWDPTS	< -0.25

Source: the supplement of paper PMC5949888
